Where no unit stands, none is given here, and values compare only within one read-out.
Assay: Emission and excitation spectra of purified LHGFR with or without 100 μM L-2-HG
Type: binding

O=C(O)CC[C@H](O)C(=O)O [L-2-HG, L-2-Hydroxyglutarate]
fluorescence intensity (Suppl. Fig. 4a emission spectrum, 452 nm): 15600 | fluorescence intensity (Suppl. Fig. 4a emission spectrum, 454 nm): 15800 | fluorescence intensity (Suppl. Fig. 4a emission spectrum, 456 nm): 17000 | fluorescence intensity (Suppl. Fig. 4a emission spectrum, 458 nm): 11600 | fluorescence intensity (Suppl. Fig. 4a emission spectrum, 460 nm): 24600 | fluorescence intensity (Suppl. Fig. 4a emission spectrum, 462 nm): 33200 | fluorescence intensity (Suppl. Fig. 4a emission spectrum, 464 nm): 55000 | fluorescence intensity (Suppl. Fig. 4a emission spectrum, 466 nm): 69800 | fluorescence intensity (Suppl. Fig. 4a emission spectrum, 468 nm): 87800 | fluorescence intensity (Suppl. Fig. 4a emission spectrum, 470 nm): 142600 | fluorescence intensity (Suppl. Fig. 4a emission spectrum, 472 nm): 193600 | fluorescence intensity (Suppl. Fig. 4a emission spectrum, 474 nm): 266800 | fluorescence intensity (Suppl. Fig. 4a emission spectrum, 476 nm): 381200 | fluorescence intensity (Suppl. Fig. 4a emission spectrum, 478 nm): 503400 | fluorescence intensity (Suppl. Fig. 4a emission spectrum, 480 nm): 605800 | fluorescence intensity (Suppl. Fig. 4a emission spectrum, 482 nm): 741000 | fluorescence intensity (Suppl. Fig. 4a emission spectrum, 484 nm): 892600 | fluorescence intensity (Suppl. Fig. 4a emission spectrum, 486 nm): 1.04E+06 | fluorescence intensity (Suppl. Fig. 4a emission spectrum, 488 nm): 1.15E+06 | fluorescence intensity (Suppl. Fig. 4a emission spectrum, 490 nm): 1.26E+06 | fluorescence intensity (Suppl. Fig. 4a emission spectrum, 492 nm): 1.28E+06 | fluorescence intensity (Suppl. Fig. 4a emission spectrum, 494 nm): 1.32E+06 | fluorescence intensity (Suppl. Fig. 4a emission spectrum, 496 nm): 1.31E+06 | fluorescence intensity (Suppl. Fig. 4a emission spectrum, 498 nm): 1.28E+06 | fluorescence intensity (Suppl. Fig. 4a emission spectrum, 500 nm): 1.24E+06 | fluorescence intensity (Suppl. Fig. 4a emission spectrum, 502 nm): 1.19E+06 | fluorescence intensity (Suppl. Fig. 4a emission spectrum, 504 nm): 1.18E+06 | fluorescence intensity (Suppl. Fig. 4a emission spectrum, 506 nm): 1.13E+06 | fluorescence intensity (Suppl. Fig. 4a emission spectrum, 508 nm): 1.10E+06 | fluorescence intensity (Suppl. Fig. 4a emission spectrum, 510 nm): 1.08E+06 | fluorescence intensity (Suppl. Fig. 4a emission spectrum, 512 nm): 1.12E+06 | fluorescence intensity (Suppl. Fig. 4a emission spectrum, 514 nm): 1.20E+06 | fluorescence intensity (Suppl. Fig. 4a emission spectrum, 516 nm): 1.33E+06 | fluorescence intensity (Suppl. Fig. 4a emission spectrum, 518 nm): 1.54E+06 | fluorescence intensity (Suppl. Fig. 4a emission spectrum, 520 nm): 1.75E+06 | fluorescence intensity (Suppl. Fig. 4a emission spectrum, 522 nm): 1.97E+06 | fluorescence intensity (Suppl. Fig. 4a emission spectrum, 524 nm): 2.17E+06 | fluorescence intensity (Suppl. Fig. 4a emission spectrum, 526 nm): 2.30E+06 | fluorescence intensity (Suppl. Fig. 4a emission spectrum, 528 nm): 2.34E+06 | fluorescence intensity (Suppl. Fig. 4a emission spectrum, 530 nm): 2.34E+06 | fluorescence intensity (Suppl. Fig. 4a emission spectrum, 532 nm): 2.23E+06 | fluorescence intensity (Suppl. Fig. 4a emission spectrum, 534 nm): 2.08E+06 | fluorescence intensity (Suppl. Fig. 4a emission spectrum, 536 nm): 1.93E+06 | fluorescence intensity (Suppl. Fig. 4a emission spectrum, 538 nm): 1.77E+06 | fluorescence intensity (Suppl. Fig. 4a emission spectrum, 540 nm): 1.60E+06 | fluorescence intensity (Suppl. Fig. 4a emission spectrum, 542 nm): 1.42E+06 | fluorescence intensity (Suppl. Fig. 4a emission spectrum, 544 nm): 1.32E+06 | fluorescence intensity (Suppl. Fig. 4a emission spectrum, 546 nm): 1.18E+06 | fluorescence intensity (Suppl. Fig. 4a emission spectrum, 548 nm): 1.05E+06 | fluorescence intensity (Suppl. Fig. 4a emission spectrum, 550 nm): 963000 | fluorescence intensity (Suppl. Fig. 4a emission spectrum, 552 nm): 855800 | fluorescence intensity (Suppl. Fig. 4a emission spectrum, 554 nm): 790000 | fluorescence intensity (Suppl. Fig. 4a emission spectrum, 556 nm): 741600 | fluorescence intensity (Suppl. Fig. 4a emission spectrum, 558 nm): 701600 | fluorescence intensity (Suppl. Fig. 4a emission spectrum, 560 nm): 662800 | fluorescence intensity (Suppl. Fig. 4a emission spectrum, 562 nm): 608600 | fluorescence intensity (Suppl. Fig. 4a emission spectrum, 564 nm): 592200 | fluorescence intensity (Suppl. Fig. 4a emission spectrum, 566 nm): 540600 | fluorescence intensity (Suppl. Fig. 4a emission spectrum, 568 nm): 508600 | fluorescence intensity (Suppl. Fig. 4a emission spectrum, 570 nm): 482000 | fluorescence intensity (Suppl. Fig. 4a emission spectrum, 572 nm): 438800 | fluorescence intensity (Suppl. Fig. 4a emission spectrum, 574 nm): 409200 | fluorescence intensity (Suppl. Fig. 4a emission spectrum, 576 nm): 378200 | fluorescence intensity (Suppl. Fig. 4a emission spectrum, 578 nm): 360800 | fluorescence intensity (Suppl. Fig. 4a emission spectrum, 580 nm): 318800 | fluorescence intensity (Suppl. Fig. 4b excitation spectrum, 380 nm): 65901 | fluorescence intensity (Suppl. Fig. 4b excitation spectrum, 382 nm): 65894 | fluorescence intensity (Suppl. Fig. 4b excitation spectrum, 384 nm): 67958 | fluorescence intensity (Suppl. Fig. 4b excitation spectrum, 386 nm): 75896 | fluorescence intensity (Suppl. Fig. 4b excitation spectrum, 388 nm): 85380 | fluorescence intensity (Suppl. Fig. 4b excitation spectrum, 390 nm): 93067 | fluorescence intensity (Suppl. Fig. 4b excitation spectrum, 392 nm): 99606 | fluorescence intensity (Suppl. Fig. 4b excitation spectrum, 394 nm): 104178 | fluorescence intensity (Suppl. Fig. 4b excitation spectrum, 396 nm): 107353 | fluorescence intensity (Suppl. Fig. 4b excitation spectrum, 398 nm): 114435 | fluorescence intensity (Suppl. Fig. 4b excitation spectrum, 400 nm): 121811 | fluorescence intensity (Suppl. Fig. 4b excitation spectrum, 402 nm): 130492 | fluorescence intensity (Suppl. Fig. 4b excitation spectrum, 404 nm): 142193 | fluorescence intensity (Suppl. Fig. 4b excitation spectrum, 406 nm): 154388 | fluorescence intensity (Suppl. Fig. 4b excitation spectrum, 408 nm): 173124 | fluorescence intensity (Suppl. Fig. 4b excitation spectrum, 410 nm): 213570 | fluorescence intensity (Suppl. Fig. 4b excitation spectrum, 412 nm): 250409 | fluorescence intensity (Suppl. Fig. 4b excitation spectrum, 414 nm): 279233 | fluorescence intensity (Suppl. Fig. 4b excitation spectrum, 416 nm): 296662 | fluorescence intensity (Suppl. Fig. 4b excitation spectrum, 418 nm): 320954 | fluorescence intensity (Suppl. Fig. 4b excitation spectrum, 420 nm): 335336 | fluorescence intensity (Suppl. Fig. 4b excitation spectrum, 422 nm): 353722 | fluorescence intensity (Suppl. Fig. 4b excitation spectrum, 424 nm): 371885 | fluorescence intensity (Suppl. Fig. 4b excitation spectrum, 426 nm): 387852 | fluorescence intensity (Suppl. Fig. 4b excitation spectrum, 428 nm): 405888 | fluorescence intensity (Suppl. Fig. 4b excitation spectrum, 430 nm): 434241 | fluorescence intensity (Suppl. Fig. 4b excitation spectrum, 432 nm): 475544 | fluorescence intensity (Suppl. Fig. 4b excitation spectrum, 434 nm): 547867 | fluorescence intensity (Suppl. Fig. 4b excitation spectrum, 436 nm): 642665 | fluorescence intensity (Suppl. Fig. 4b excitation spectrum, 438 nm): 687870 | fluorescence intensity (Suppl. Fig. 4b excitation spectrum, 440 nm): 722951 | fluorescence intensity (Suppl. Fig. 4b excitation spectrum, 442 nm): 752297 | fluorescence intensity (Suppl. Fig. 4b excitation spectrum, 444 nm): 780632 | fluorescence intensity (Suppl. Fig. 4b excitation spectrum, 446 nm): 813150 | fluorescence intensity (Suppl. Fig. 4b excitation spectrum, 448 nm): 840940 | fluorescence intensity (Suppl. Fig. 4b excitation spectrum, 450 nm): 878660 | fluorescence intensity (Suppl. Fig. 4b excitation spectrum, 452 nm): 909752 | fluorescence intensity (Suppl. Fig. 4b excitation spectrum, 454 nm): 935396 | fluorescence intensity (Suppl. Fig. 4b excitation spectrum, 456 nm): 1.00E+06 | fluorescence intensity (Suppl. Fig. 4b excitation spectrum, 458 nm): 1.08E+06 | fluorescence intensity (Suppl. Fig. 4b excitation spectrum, 460 nm): 1.16E+06 | fluorescence intensity (Suppl. Fig. 4b excitation spectrum, 462 nm): 1.20E+06

From PMC8206213, “An L-2-hydroxyglutarate biosensor based on specific transcriptional regulator LhgR” (Nature Communications, 2021)
